Source: article PMC12062965, “Transposable Elements Drive Regulatory and Functional Innovation of F-box Genes”
Results are given in words; binding and its absence hold for the method and conditions named. In cells and extracts the contact can be indirect. Here binding means that the protein was enriched with, or labelled near, the bait; the list need not be complete.

Protein sequences, listed by entry. Tags and fused reporters are not part of them.
UniProt G5ECU1: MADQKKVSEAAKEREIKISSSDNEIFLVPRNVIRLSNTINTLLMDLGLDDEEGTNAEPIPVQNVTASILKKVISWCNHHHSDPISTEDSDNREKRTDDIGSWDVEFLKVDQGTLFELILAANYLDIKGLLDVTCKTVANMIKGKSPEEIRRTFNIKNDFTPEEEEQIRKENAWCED

Molecular target: GST::FBXA-215 (C. elegans)
Assay: affinity purification with mass spectrometry; 5 ug GST-F-box fusion on glutathione Sepharose beads incubated with 300 to 700 ug C. elegans extract (young adult animals or embryos) for 3 h at 4 °C; 25 mM Tris HCl pH 7.5, 150 mM NaCl, 1.5 mM MgCl2, 1 mM DTT; label-free quantitative mass spectrometry, interactors defined by enrichment over GST alone; only the target purified

binding: binds
Substance: SKR-1 (from UniProt G5ECU1 1-176)
